Measured values as given in patent US20250205361A1, “TREATMENT REGIMENS FOR THERAPEUTIC EFFECTOR COMPONENTS THAT ACT VIA AN INTRACELLULAR MOLECULAR TARGET” (priority 2023, published 2025).
Some results were stated once for a whole list of compounds, not compound by compound. For at least one compound, name, drawing or mass did not settle the structure.

Tests used:
Ttr RNA = Ttr RNA quantification (qRT-PCR) in murine primary hepatocytes, depot release; type: cell-based, mouse; details: wash
Experimental: Wells of a 24- or 96-well plate (Greiner BioOne) were coated overnight at 37° C. with rat collagen-I (Ibidi). Next day the coating solution was removed and the wells were washed 1× with PBS (PAN-Biotech GmbH). Hepatocyte Plating Medium (HPM, […] Cell Culture Technology GmbH) was added using 210 μl or 35 μl per well, per 24-wp or 96-wp respectively. Next, GN3-siTTR/DPBS was dissolved at 10× the final concentration (final concentration is 0.5 nM or 0.05 nM GN3-siTTR, as indicated) and 90 μl or 15 μl was added to each well, per 24-wp or 96-wp respectively. Cryopreserved primary mouse hepatocytes (Cytes Biotechnology) were thawed in Hepatocyte Thawing Medium (HTM, […] Cell Culture Technology GmbH) and collected by centrifugation at 50×g for 10 min. Cells were gently re-suspended in HPM at a density of 0.215×10^6 cells/ml. Cells were added on the top of the medium and treatment mix at 150,000 cells/well or 35,000 cells/well, respectively for the 24- or 96-well plates. After 6 hrs of seeding/treatment, medium was removed and cells were washed with HPM. Subsequently 810 μl (24-well) or 135 μl (96-well) Hepatocyte Maintenance Medium (HMM, […] Cell Culture Technology GmbH) was added per well, after which saponin components were added from a 10× concentrated stock solution in PBS or PBS was added for control samples followed by a 24 hr or 48 hr incubation, as indicated in FIG. 3A. Alternatively, cells were incubated in the HMM for 18 hrs, after which either saponin components or PBS were added for an additional 3 or 6 hrs, as indicated in the experiment, followed by wash and then a further incubation in HMM for 21 or 18 hrs, as indicated in FIG. 3C. Plates were incubated with saponin components, in concentration of 800 nM SO1861; 2000 nM SO1861-AH-Maleimde-Block (also referred to as SO1861-AH-Block), or 250 nM GN3-AH-SO1861. […]
RNA from cells was isolated using TRIzol™ Reagent (Thermo Scientific) according to the manufacturer's instruction. […] Ttr expression levels and levels of specific hepatocyte housekeeping genes were determined using quantitative real-time PCR assays (qRT-PCR) using iTaq™ Universal SYBR® Green Supermix (BioRad) and the Light Cycler 480 II (Roche Diagnostics) with specific DNA primers, listed in Table A2. […]
The timed, saponin-component-inducible release of a nucleic acid from endosomes after prior loading cells with the nucleic acid was also assessed in vitro in murine primary hepatocytes (MPH) in different dosing regimens. […] The cells were then washed with medium and incubated with medium containing saponin components or medium with equivalent amounts of PBS as control for an additional 24 hrs or 48 hrs, after which remaining Ttr RNA levels were analysed by qRT-PCR. […]

A431 cells = assay: Imaging of Cy5 fluorescence release from Cet-Cy5 loaded A431 cells; type: cell-based, human; details: A431 loaded with 2 nM Cet-Cy5 48 hrs, wash, 24 hrs resting, saponin component added at 72 hrs
Experimental: Cells were cultured in DMEM (PAN-Biotech GmbH) supplemented with 10% fetal bovine serum (FBS) (PAN-Biotech GmbH) and Pen/Strep (PAN-Biotech GmbH) at 37° C. and 5% CO2.

[1] = 0.05 nM GN3-siTTR 6 hrs loading, saponin component 24 hrs (800 nM SO1861; 2000 nM SO1861-AH-Block; 250 nM GN3-AH-SO1861)
[2] = 0.5 nM GN3-siTTR 6 hrs loading, 18 hrs resting, saponin component pulse 6 hrs, medium until analysis

SMILES	remaining Ttr levels (Ttr RNA; [1])	remaining Ttr levels (Ttr RNA; [2])	onset of gradual Cy5 fluorescence intensity loss (A431 cells)
CC(=O)OC1C(C)OC(OC2C(C)OC(OC(=O)[C@]34CCC(C)(C)CC3C3=CCC5[C@@]6(C)CC[C@H](OC7OC(C(=O)O)C(O)C(OC8OCC(O)C(O)C8O)C7OC7OC(CO)C(O)C(O)C7O)[C@@](C)(/C=N/NC(=O)CCCCCN7C(=O)CC(SCCO)C7=O)C6CC[C@@]5(C)[C@]3(C)C[C@H]4O)C(OC3OC(C)C(OC4OCC(O)C(OC5OC(CO)C(O)C(O)C5O)C4O)C(O)C3O)C2O)C(O)C1OC1OCC(O)C(O)C1O (some centres unmarked) [SO1861-AH-Maleimide-Block]	5-15%	4-7%	–
CC(=O)O[C@H]1[C@H](O[C@@H]2OC[C@@H](O)[C@H](O)[C@H]2O)[C@@H](O)[C@H](O[C@@H]2[C@H](O)[C@@H](O[C@@H]3O[C@@H](C)[C@H](O[C@@H]4OC[C@@H](O)[C@H](O[C@@H]5O[C@H](CO)[C@@H](O)[C@H](O)[C@H]5O)[C@H]4O)[C@@H](O)[C@H]3O)[C@H](OC(=O)[C@]34CCC(C)(C)C[C@H]3C3=CC[C@@H]5[C@@]6(C)CC[C@H](O[C@@H]7O[C@H](C(=O)O)[C@@H](O)[C@H](O[C@@H]8OC[C@@H](O)[C@H](O)[C@H]8O)[C@H]7O[C@@H]7O[C@H](CO)[C@H](O)[C@H](O)[C@H]7O)[C@@](C)(C=O)[C@@H]6CC[C@@]5(C)[C@]3(C)C[C@H]4O)O[C@@H]2C)O[C@@H]1C [SO1861]	5-15%	4-7%	74 to 110 h
